# Assay results reported in the supplement of paper PMC5949888.
# Most values lie at the floor of the assay. Slopes are relative: functional sequences can read slightly below zero.
# Test system: Saccharomyces cerevisiae PS128 hsf1 delta, HSF1(1-493) fusion
# Experiment: growth estimate (transactivation domain function in HSF1 fusion, heat-shock survival) (a.u. (slope of normalised read count over time)); higher = stronger growth at 37°C, i.e. more transactivation activity
# Details: library: random library
row,Substance,growth estimate
1,TFKD,< -0.25
2,RPIWIALRWGCSEIAPLIDD,< -0.25
3,YRQVVQ,< -0.25
4,GLHRVIQKTVR,< -0.25
5,CVSDAG,< -0.25
6,LLGYGVGATMGIHSCP,< -0.25
7,SMVAEMNVLTLPLR,< -0.25
8,GARCGCKLLGVTSHAGQWIA,< -0.25
9,TLAGSICPSMLVWR,< -0.25
10,RNYHFGVRCIVTGQ,< -0.253
11,DGDGRAPVILLSR,< -0.25
12,RRCGSDNFSLVKTQPMVSAR,< -0.25
13,VVPSLVQPEAEPGGI,< -0.25
14,SDEFDRAS,< -0.25
15,PSEIDDSMFAIAVRLAGLRR,< -0.25
16,VGKVVGVSRAKIECIITSWT,< -0.25
17,RCDDIPTGNLTTRVVALGAS,< -0.25
18,YTIDSFYFNHSDAWIDILFT,0.0656
19,DTSVYTNEEPADLHSSYMSW,0.161
20,FSERGISLPVASRHGHPTM,< -0.25
21,TRSTAAMDNFHCASFVGGYA,< -0.25
22,HRRSQ,< -0.25
23,LFPNARL,< -0.25
24,WSARPSPEGWPRDLQ,< -0.25
25,KCYSHRKKGSRGTLPQRTP,< -0.25

row,Substance,growth estimate
1,RFNIDETKELRLELLNTG,< -0.25
2,GDGAGPVLSESWSNNEKSLV,< -0.25
3,NKTNGVRCLHRFVVLQERTL,< -0.25
4,QYGSIYLFKESLA,< -0.25
5,AWRATTTVRSR,< -0.25
6,GPRLRVEKWCRKGQRSCLIG,< -0.25
7,VQVSN,< -0.25
8,PHVVRTDGSGSDLHTFPAS,< -0.25
9,GDDFGYTHEARLTPSTPPIL,< -0.25
10,VTARSSDVVLSLDTRPARPC,< -0.25
11,ECEPWG,< -0.25
12,LRREK,< -0.25
13,SLLGFLHSLFSLL,< -0.25
14,KVYGAIAILERSYAAPTQRQ,< -0.25
15,SFFRGRFIISGFN,< -0.25
16,TVATGRLTNMTAPMNSPVV,< -0.25
17,EGVPQRISCTHRHRLGKCLP,< -0.25
18,RGDVTGLANRRVLNLCRNRP,< -0.25
19,LGISSRSPREISIVKKRLGG,< -0.25
20,IRLDLATAFTSGRRTLSATI,< -0.25
21,LAMVRARFLVCYWIDKYY,-0.245
22,AVLGKA,< -0.25
23,EVGKCGVSVGWHNSAGHWRP,< -0.25
24,RMQLGYRAIVEFGTGCTRPL,< -0.25
25,VQPPRDHGACSRPKCRLLAQ,< -0.25

row,Substance,growth estimate
1,TQASSDPIRHSSR,< -0.25
2,QPKS,< -0.25
3,NFQDS,0.0543
4,GNVIE,< -0.25
5,QHRD,< -0.25
6,ENERKRRDISADFHPDGHQA,< -0.25
7,GSSANG,< -0.25
8,RCTGSGQVWG,< -0.25
9,VCTLVRILAKSDGRQFPHVT,< -0.25
10,KTRLFNRPKICALRSRVRKA,< -0.25
11,TWQDESNDPYYRSLARLIYC,< -0.25
12,RLLDIIAFSLDHRCLHVVFC,< -0.25
13,RLMSRLKSKDPL,< -0.25
14,QYPV,< -0.25
15,DSMLLSGED,< -0.25
16,MTSSRSCPC,< -0.25
17,AWNMRKQGGIFQCSLLW,< -0.25
18,LRGVAFL,< -0.25
19,DTL,< -0.25
20,SDRG,< -0.25
21,LVGKYEWVCVVKSAQSDQSP,-0.245
22,LVLELSLLFDIKVRELHDGL,< -0.25
23,VVRTPCLTWRWGRAHDTPDA,< -0.25
24,QLYAPQSVYSNPNITWTTPK,< -0.25
25,NSRPSRYNFEMGSGLSVSAH,< -0.25

row,Substance,growth estimate
1,SADTGERLSKVYDTEGCPGA,< -0.25
2,RTAGDAGTSILRAIAKASLA,< -0.25
3,VGQYRLHNLNTGVAGPTC,< -0.25
4,LTYEPEQCHCRVICQMCNLS,< -0.25
5,RLGSLTKHNVSQQKVHRPTN,< -0.25
6,SPWEETDLVAGP,-0.201
7,LTSSGVGLRAGTRSE,< -0.25
8,RSTSPPPNELRPLLARTKRP,< -0.25
9,SARQS,< -0.25
10,TPSKISKSDLCSVYRGRISG,-0.25
11,LRSM,< -0.25
12,SSCVVGARVLGSRS,< -0.25
13,GSGTFR,< -0.25
14,NPLEIAHLITRQGGPVPAST,< -0.25
15,MHIVSKWETCTVLTVIIQCT,< -0.25
16,AQQARSRMFMSEYTTLPAQQ,< -0.25
17,AYSVDPNYA,< -0.25
18,NSQTCT,-0.198
19,GKEVFVGRAKRGVILCASGS,-0.208
20,PCRIACVSQRRGRLRWSVTG,< -0.25
21,SSGSLNASVGVSPSIY,< -0.25
22,TSDSHANQNLLSSI,< -0.25
23,IRRRFY,< -0.25
24,GVQGVREIERILYR,< -0.25
25,VTRATHRVADRIRSLLTRMV,< -0.25

row,Substance,growth estimate
1,RWLCLARTPTG,< -0.25
2,LQGAGGALFA,< -0.25
3,LVRWTTSARSI,< -0.25
4,RRVVLSYVARQHQSGSCGAR,< -0.25
5,FCV,< -0.25
6,TCGGSFPLGKHEN,< -0.25
7,GTSGSACSGVPGFVAQYWPW,0.316
8,ISPKVVARTGRY,< -0.25
9,ISCYHLLRHLLKVAFSDNYR,< -0.25
10,KQYGILRVSLYSLSTSMNST,-0.245
11,NSGHKCSPRRTIGVRGSGVG,< -0.25
12,GWFIHVKPWDRWAQVS,< -0.25
13,ASCRGGKRRNSWKGPSGLHL,< -0.25
14,SMGKPRSDPRHIIACRTVIR,< -0.25
15,APQSANGVGHCPVPVVSNPR,< -0.25
16,ARWVTN,-0.246
17,NTIVDAGVLTKKEGVRMICG,< -0.25
18,CIRSSVGEIGTTDPLSTREP,< -0.25
19,GSARFTRPSCPE,< -0.25
20,RKSAVTWKFDEVGHDHATRK,< -0.25
21,PGIRESTKGRRNQLQNTPCH,< -0.25
22,PLTCCLVGMYCTFPEFYSAP,< -0.25
23,GESLGR,-0.172
24,SYYGPWSIPGTPQEPPRPQS,< -0.25
25,RSGEVLPMPSRSHASDIPLA,< -0.25

# Given bar-delimited: part of the list above
row | Substance | growth estimate
1 | TFKD | < -0.25
5 | CVSDAG | < -0.25
10 | RNYHFGVRCIVTGQ | < -0.253
12 | RRCGSDNFSLVKTQPMVSAR | < -0.25
18 | YTIDSFYFNHSDAWIDILFT | 0.0656
19 | DTSVYTNEEPADLHSSYMSW | 0.161
22 | HRRSQ | < -0.25
24 | WSARPSPEGWPRDLQ | < -0.25
7 | VQVSN | < -0.25
8 | PHVVRTDGSGSDLHTFPAS | < -0.25
9 | GDDFGYTHEARLTPSTPPIL | < -0.25
11 | ECEPWG | < -0.25
12 | LRREK | < -0.25
13 | SLLGFLHSLFSLL | < -0.25
14 | KVYGAIAILERSYAAPTQRQ | < -0.25
15 | SFFRGRFIISGFN | < -0.25
16 | TVATGRLTNMTAPMNSPVV | < -0.25
17 | EGVPQRISCTHRHRLGKCLP | < -0.25
18 | RGDVTGLANRRVLNLCRNRP | < -0.25
20 | IRLDLATAFTSGRRTLSATI | < -0.25
22 | AVLGKA | < -0.25
23 | EVGKCGVSVGWHNSAGHWRP | < -0.25
5 | QHRD | < -0.25
6 | ENERKRRDISADFHPDGHQA | < -0.25
7 | GSSANG | < -0.25
10 | KTRLFNRPKICALRSRVRKA | < -0.25
14 | QYPV | < -0.25
22 | LVLELSLLFDIKVRELHDGL | < -0.25
25 | NSRPSRYNFEMGSGLSVSAH | < -0.25
1 | SADTGERLSKVYDTEGCPGA | < -0.25
4 | LTYEPEQCHCRVICQMCNLS | < -0.25
12 | SSCVVGARVLGSRS | < -0.25
17 | AYSVDPNYA | < -0.25
18 | NSQTCT | -0.198
2 | LQGAGGALFA | < -0.25
3 | LVRWTTSARSI | < -0.25
4 | RRVVLSYVARQHQSGSCGAR | < -0.25
5 | FCV | < -0.25
10 | KQYGILRVSLYSLSTSMNST | -0.245
12 | GWFIHVKPWDRWAQVS | < -0.25
15 | APQSANGVGHCPVPVVSNPR | < -0.25
19 | GSARFTRPSCPE | < -0.25
20 | RKSAVTWKFDEVGHDHATRK | < -0.25
23 | GESLGR | -0.172

# The results go on.

row,Substance,growth estimate
1,SWANHERYRGP,< -0.25
2,APKVN,< -0.25
3,CPKDLLVSERMPTENYAPAG,< -0.25
4,GLGRLG,< -0.25
5,SQGHVSVRLAGYERTDCPRG,< -0.25
6,ARDFADSL,< -0.25
7,CSPVTARTPSVWERVHRGTW,< -0.25
8,GHMGKFEHGDLKGQLTTTSR,< -0.25
9,GSSGQWGVLRYELLKNVNLV,< -0.25
10,RSTTSRQLGILSGITVAG,< -0.25
11,ALFN,< -0.25
12,PGLVLRANVLILYPL,< -0.25
13,IPTGPHQPAPLVVRA,< -0.25
14,SLDGRVTVRSSPVPLKTRAT,< -0.25
15,WRGRNARNNNITLL,< -0.25
16,RRAILHRYGVR,< -0.25
17,IWRNRTA,< -0.25
18,GKLRRPDRKGKCHRGNGGCS,< -0.25
19,EIMGGGSK,< -0.25
20,KCVRVILQNSDWTS,< -0.25
21,NQTVAGGLSMKIRFRRVLGT,< -0.25
22,EDPLSGQTRQGHFGRQGCCS,< -0.25
23,AGPKGVKPPDGPCEVRINLT,-0.231
24,KLIG,-0.231
25,QTLRHM,< -0.25

row,Substance,growth estimate
1,EVPAPI,< -0.25
2,VAFDRCMPQR,< -0.25
3,LFAPYCYTTAALPTWKVICL,< -0.25
4,HDNKARQKTNGLSTGLSLHN,< -0.25
5,IFDRASRWMCTV,-0.243
6,RWV,< -0.25
7,LATRCNREGGE,< -0.25
8,DHGLRGV,< -0.25
9,RRGYPRHFIGFVQTSAVRNE,< -0.25
10,LSSTVSTLGSLVRTISSDT,< -0.25
11,TEFAVSASPSDQIFGKVLLA,< -0.25
12,SSLLSLA,< -0.25
13,GSYSSLCHTRSGGVGNKKEK,< -0.25
14,LTSKYGIPW,< -0.25
15,NEPVRGLALLPAGYVVAPGA,< -0.25
16,HVSPVVLG,< -0.25
17,IGVHTIVEVLCRYELGFPGR,< -0.25
18,LQGQSGRMPMIPDPAGRQTP,< -0.25
19,SPRLRSRPGGVQNGGQFRGI,< -0.25
20,CGT,< -0.25
21,HFT,< -0.25
22,IGSMCQTSGYASN,< -0.25
23,RFGGAYGGNA,< -0.25
24,CQSGHSRPDMWGWPRKSRVG,< -0.25
25,PKRRTMPGLNCAGQCDMAER,< -0.25

row,Substance,growth estimate
1,GYARIPHSC,< -0.25
2,RGHGARMAAV,< -0.25
3,LPPRRASPQGG,< -0.25
4,TPGTPSGPPYTAFKQ,< -0.25
5,CYVSIGPSISGAQDGVRLHC,< -0.25
6,LPIRRNLYGGNDTLSYQV,< -0.25
7,ADELSYDRAHVPLT,< -0.25
8,HHPALVIPSREPR,< -0.25
9,VENRPRSG,< -0.25
10,EDSYIKAH,< -0.25
11,KGTQFLGLRWRT,< -0.25
12,ESQSFNFWSNY,< -0.25
13,AKTLSYAFSLDLA,0.393
14,VSAPK,< -0.25
15,HHFIRPGTRDKGTGVIRSRR,< -0.25
16,NFHTNNSSCTCSHLLIGAME,< -0.25
17,VPCSTTVHGRDLKMRRPSRV,< -0.25
18,PQDLLPNKGEKMILHY,< -0.25
19,LYLQVMCR,< -0.25
20,GYGLQTKRRVRVSGKPYLKA,< -0.25
21,DIGECCELAGRKRSPGAVRR,< -0.25
22,GQCIATICGPCGNPELSW,< -0.25
23,RSGGFVPGIWFKKAR,< -0.25
24,QNL,< -0.25
25,KGV,< -0.25
